Results are given in words; binding and its absence hold for the method and conditions named. Some results given as binding are weak or reduced against the parent protein; the word gives no strength. Where a sequence is shown, tags or fusion partners need not be part of it.
Legend:
[1] = target: T1, recombinant human La protein (rhLa), SEQ ID No. 1 with His tag (human) (UniProt P05455); assay: FACS on cells decorated with rhLa
T1 sequence: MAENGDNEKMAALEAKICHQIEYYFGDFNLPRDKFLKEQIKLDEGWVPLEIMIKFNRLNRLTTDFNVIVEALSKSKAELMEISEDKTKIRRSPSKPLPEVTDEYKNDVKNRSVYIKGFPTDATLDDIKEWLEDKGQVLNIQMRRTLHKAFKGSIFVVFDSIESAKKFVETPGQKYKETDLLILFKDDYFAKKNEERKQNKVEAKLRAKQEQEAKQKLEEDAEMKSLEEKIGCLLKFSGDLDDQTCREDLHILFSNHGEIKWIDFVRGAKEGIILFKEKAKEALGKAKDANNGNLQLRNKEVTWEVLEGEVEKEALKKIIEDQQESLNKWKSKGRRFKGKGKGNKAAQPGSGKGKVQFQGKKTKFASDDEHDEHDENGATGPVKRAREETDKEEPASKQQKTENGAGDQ

[2] = target: T1, recombinant human La protein (rhLa), SEQ ID No. 1 with His tag (human); assay: FACS on cells decorated with rhLa; 10 µg scFv, detected with anti-c-myc-FITC

binding [1]: binds
binding [2]: binds
B1: 7B6 scFv (scFv, not shown: small tags and cut ends)
scFv: VKLQESGGGLVQPGRPMKLSCVASGFTFSDFWMNWVRQSPEKGLEWVAQIRNKPNNYETYYSDSLKGRFTISRDDSKSSVYLQMNNLRPEDMGIYYCTLGNSWFAYWGQGTLVTVSGGGGSGGGGSGGGGSDIVITQSPSSLAVSAGEKVTMSCRSSQSLLDSRTRKNYLAWYQQKPGQSPKLLIYWASTRESGVPDRFTGSGSGTDFTLTISNVQAEDLAVYYCKQSYNLPTFGGGTKLEIHHHHHH

— patent US20130216544A1 (GEMOAB MONOCLONALS, published 2013)
